Measurements taken from publication doi:10.1101/206383.
Results are given in words; binding and its absence hold for the method and conditions named. Binding seen in cells or lysates may run through a third protein. Some results given as binding are weak or reduced against the parent protein; the word gives no strength.

Protein sequences, listed by entry. Tags and fused reporters are not part of them. Lines headed by an entry give the natural chain unless they say otherwise; changes in a name come on top.
UniProt Q80U70, whole entry: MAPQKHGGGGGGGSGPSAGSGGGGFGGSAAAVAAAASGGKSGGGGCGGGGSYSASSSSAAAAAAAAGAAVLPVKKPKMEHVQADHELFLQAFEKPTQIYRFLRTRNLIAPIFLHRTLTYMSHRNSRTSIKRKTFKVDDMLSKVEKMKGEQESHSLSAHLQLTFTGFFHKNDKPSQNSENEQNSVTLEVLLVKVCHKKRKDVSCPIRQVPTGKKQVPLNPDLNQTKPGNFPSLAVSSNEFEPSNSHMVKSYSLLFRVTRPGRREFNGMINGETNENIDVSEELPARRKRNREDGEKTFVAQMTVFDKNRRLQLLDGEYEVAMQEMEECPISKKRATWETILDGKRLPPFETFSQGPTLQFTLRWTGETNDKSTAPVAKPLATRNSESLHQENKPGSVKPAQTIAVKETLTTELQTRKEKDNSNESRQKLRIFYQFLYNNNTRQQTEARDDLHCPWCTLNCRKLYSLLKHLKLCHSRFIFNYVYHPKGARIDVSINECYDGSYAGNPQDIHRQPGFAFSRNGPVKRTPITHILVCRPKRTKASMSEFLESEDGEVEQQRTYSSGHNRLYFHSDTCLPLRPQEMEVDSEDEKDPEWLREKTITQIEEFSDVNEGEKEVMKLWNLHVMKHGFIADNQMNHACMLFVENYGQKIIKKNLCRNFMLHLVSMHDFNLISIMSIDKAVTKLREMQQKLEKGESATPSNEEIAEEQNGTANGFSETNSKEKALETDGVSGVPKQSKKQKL

What was measured:
Experiment in all cases: co-IP
[1] = target: EZH2^WT expressed from a lentiviral vector in EZH2-KO mESC (human) (UniProt Q15910)
[2] = target: EZH2^D142V expressed from a lentiviral vector in EZH2-KO mESC (human) (UniProt Q15910)
[3] = target: EZH2^F145L expressed from a lentiviral vector in EZH2-KO mESC (human) (UniProt Q15910)
[4] = target: EZH2^P132S expressed from a lentiviral vector in EZH2-KO mESC (human) (UniProt Q15910)

Measured: binding

SUZ12, endogenous in mESC (from UniProt Q80U70 1-741)
binds: all assays above

B1: Aebp2, endogenous in mESC (protein, UniProt Q9Z248 1-504)
chain: MAAALADMADLEELSRLSPLSPGSPGPAARGRAEPPEEEEEEDDEEAEAEAVAALLLNGGAGGGAGGGEAETMSEPSPESASQAGGDEDEDEEDDEDEGSSSGGAEEESSAESLVGSSSGGCSGDETRSLSPGAASSSSGDGDGKEGLEEPKGPRGGPGGPGSSGGGSSSSSVVSSGGDEGYGTGGGGSSATSGGRRGSLEMSSDGEPLSRMDSEDSISSTLMDIDSTISSGRSTPAMMNGQGSTTASSKHIAYNCCWDQCQACFNSSPDLADHIRSIHVDGQRGGVFVCLWKGCKVYNTPSTSQSWLQRHMLTHSGDKPFKCVVGGCNASFASQGGLARHVPTHFSQQNSSKVSSQPKAKEESPSKAGMNKRRKLKNKRRRSLPRPHDFFDAQTLDAIRHRAICFNLSAHIESLGKGHSVVFHSTVIAKRKEESGKIKLLLHWMPEDILPDVWVNESERHQLKTKVVHLSKLPKDTALLLDPNIYRTMPQKRLKRFDILNFPR
binds: all assays above

B2: Jarid2, endogenous in mESC (protein, UniProt Q62315 1-1234)
chain: MSKERPKRNIIQKKYDDSDGIPWSEERVVRKVLYLSLKEFKNAQKRQHGEGLAGSLKAVNGLLGNAQAKALGPASEQSENEKDDASQVSSTSNDVSSSDFEEGPSRKRPRLQAQRKFAQSQPNSPSTTPVKIVEPLLPPPATQISDLSKRKPKTEDFLTFLCLRGSPALPNSMVYFGSSQDEEDVEEEDDETEDVKATTNNASSSCQSTPRKGKTHKHVHNGHVFNGSSRSAREKEPAHKHRSKEATPGKEKHSEPRADSRREQASGAQPTAASAAASSAKGLAANHQPPPSHRSAQDLRKQVSKVNGVTRMSSLGAGTNSAKKIREVRPSPSKTVKYTATVTKGTVTYTKAKRELVKETKPNHHKPSSAVNHTISGKTESSNAKTRKQVLSLGGASKSTGPAASGLKASSRLNPKSCTKEVGGRQLREGLRNSKRRLEEAQQVDKPQSPPKKMKGVAGNAEAPGKKASAASGEKSLLNGHVKKEVPERSLERNRPKRAAAGKNMLGKQAHGKTEGTPCENRSTSQPESSHKPHDPQGKPEKGSGKSGWAAMDEIPVLRPSAKEFHDPLIYIESVRAQVEKYGMCRVIPPPDWRPECKLNDEMRFVTQIQHIHKLGRRWGPNVQRLACIKKHLRSQGITMDELPLIGGCELDLACFFRLINEMGGMQQVTDLKKWNKLADMLRIPKTAQDRLAKLQEAYCQYLLSYDSLSPEEHRRLEKEVLMEKEILEKRKGPLEGHTESDHHKFHSLPRFEPKNGLVHGVTPRNGFRSKLKEVGRAPLKTGRRRLFAQEKEVVKEEEEDKGVLNDFHKCIYKGRSVSLTTFYRTARNIMNMCFSKEPAPAEIEQEYWRLVEEKDCHVAVHCGKVDTNTHGSGFPVGKSEPFSRHGWNLTVLPNNTGSILRHLGAVPGVTIPWLNIGMVFSTSCWSRDQNHLPYIDYLHTGADCIWYCIPAEEENKLEDVVHTLLQGNGTPGLQMLESNVMISPEVLCKKGIKVHRTVQQSGQFVVCFPGSFVSKVCCGYNVSETVHFATTQWTSMGFETAKEMKRRHIAKPFSMEKLLYQIAQAEAKKENGPTLSTISALLDELRDTELRQRRLLFEAGLHSSARYGSHDGNSTVADGKKKPRKWLQLETSERRCQICQHLCYLSMVVQENENVVFCLECALRHVEKQKSCRGLKLMYRYDEEQIISLVNQICGKVSGKHGGIENCLNKPTPKRGPRKRATVDVPPSRLPSS
binds: all assays above
